The record followed here is the supplement of paper PMC12819154, “High-throughput peptide-centric local stability assay extends protein–ligand identification to membrane proteins, tissues and bacteria” (Nature Structural & Molecular Biology, 2025).

The chains behind the UniProt entries cited, without tags or fusion partners. Where a name states a change or a piece, a line headed by the entry shows the natural chain unless it says otherwise.
UniProt Q96JC1: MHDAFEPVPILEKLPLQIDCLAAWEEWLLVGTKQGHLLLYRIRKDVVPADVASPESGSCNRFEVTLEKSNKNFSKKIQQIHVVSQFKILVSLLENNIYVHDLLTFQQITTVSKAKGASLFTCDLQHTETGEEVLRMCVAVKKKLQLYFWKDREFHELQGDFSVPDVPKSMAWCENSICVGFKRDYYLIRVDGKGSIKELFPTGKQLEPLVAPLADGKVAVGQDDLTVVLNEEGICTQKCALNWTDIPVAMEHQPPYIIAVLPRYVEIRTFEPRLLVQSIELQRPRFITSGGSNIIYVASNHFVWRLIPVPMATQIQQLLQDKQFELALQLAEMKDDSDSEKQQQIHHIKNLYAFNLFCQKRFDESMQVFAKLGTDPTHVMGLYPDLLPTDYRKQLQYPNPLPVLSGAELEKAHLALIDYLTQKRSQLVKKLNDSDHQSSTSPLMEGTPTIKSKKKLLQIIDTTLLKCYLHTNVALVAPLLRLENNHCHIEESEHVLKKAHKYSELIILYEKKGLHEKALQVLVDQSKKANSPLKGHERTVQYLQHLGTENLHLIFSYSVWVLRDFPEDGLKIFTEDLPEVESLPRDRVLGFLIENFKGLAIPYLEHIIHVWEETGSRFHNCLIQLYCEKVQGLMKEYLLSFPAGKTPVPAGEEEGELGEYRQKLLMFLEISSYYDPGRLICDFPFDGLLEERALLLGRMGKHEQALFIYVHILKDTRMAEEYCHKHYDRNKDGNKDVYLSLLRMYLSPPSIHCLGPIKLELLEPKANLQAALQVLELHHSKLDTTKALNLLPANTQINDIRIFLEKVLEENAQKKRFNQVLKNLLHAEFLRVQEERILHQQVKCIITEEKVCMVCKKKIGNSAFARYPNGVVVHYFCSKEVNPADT
UniProt Q96LT7: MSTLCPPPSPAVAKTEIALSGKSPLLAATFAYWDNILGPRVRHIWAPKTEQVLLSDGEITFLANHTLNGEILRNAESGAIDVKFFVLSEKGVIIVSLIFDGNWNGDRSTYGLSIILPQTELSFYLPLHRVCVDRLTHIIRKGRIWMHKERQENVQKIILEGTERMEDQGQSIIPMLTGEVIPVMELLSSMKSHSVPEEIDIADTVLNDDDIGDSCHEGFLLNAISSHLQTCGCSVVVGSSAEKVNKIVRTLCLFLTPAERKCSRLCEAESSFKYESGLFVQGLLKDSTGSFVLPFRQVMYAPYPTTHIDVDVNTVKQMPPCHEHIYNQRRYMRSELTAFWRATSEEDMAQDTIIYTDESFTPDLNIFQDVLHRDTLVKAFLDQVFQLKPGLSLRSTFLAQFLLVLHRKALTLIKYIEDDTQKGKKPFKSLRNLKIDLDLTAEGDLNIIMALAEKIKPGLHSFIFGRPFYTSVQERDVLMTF
UniProt Q96RT1: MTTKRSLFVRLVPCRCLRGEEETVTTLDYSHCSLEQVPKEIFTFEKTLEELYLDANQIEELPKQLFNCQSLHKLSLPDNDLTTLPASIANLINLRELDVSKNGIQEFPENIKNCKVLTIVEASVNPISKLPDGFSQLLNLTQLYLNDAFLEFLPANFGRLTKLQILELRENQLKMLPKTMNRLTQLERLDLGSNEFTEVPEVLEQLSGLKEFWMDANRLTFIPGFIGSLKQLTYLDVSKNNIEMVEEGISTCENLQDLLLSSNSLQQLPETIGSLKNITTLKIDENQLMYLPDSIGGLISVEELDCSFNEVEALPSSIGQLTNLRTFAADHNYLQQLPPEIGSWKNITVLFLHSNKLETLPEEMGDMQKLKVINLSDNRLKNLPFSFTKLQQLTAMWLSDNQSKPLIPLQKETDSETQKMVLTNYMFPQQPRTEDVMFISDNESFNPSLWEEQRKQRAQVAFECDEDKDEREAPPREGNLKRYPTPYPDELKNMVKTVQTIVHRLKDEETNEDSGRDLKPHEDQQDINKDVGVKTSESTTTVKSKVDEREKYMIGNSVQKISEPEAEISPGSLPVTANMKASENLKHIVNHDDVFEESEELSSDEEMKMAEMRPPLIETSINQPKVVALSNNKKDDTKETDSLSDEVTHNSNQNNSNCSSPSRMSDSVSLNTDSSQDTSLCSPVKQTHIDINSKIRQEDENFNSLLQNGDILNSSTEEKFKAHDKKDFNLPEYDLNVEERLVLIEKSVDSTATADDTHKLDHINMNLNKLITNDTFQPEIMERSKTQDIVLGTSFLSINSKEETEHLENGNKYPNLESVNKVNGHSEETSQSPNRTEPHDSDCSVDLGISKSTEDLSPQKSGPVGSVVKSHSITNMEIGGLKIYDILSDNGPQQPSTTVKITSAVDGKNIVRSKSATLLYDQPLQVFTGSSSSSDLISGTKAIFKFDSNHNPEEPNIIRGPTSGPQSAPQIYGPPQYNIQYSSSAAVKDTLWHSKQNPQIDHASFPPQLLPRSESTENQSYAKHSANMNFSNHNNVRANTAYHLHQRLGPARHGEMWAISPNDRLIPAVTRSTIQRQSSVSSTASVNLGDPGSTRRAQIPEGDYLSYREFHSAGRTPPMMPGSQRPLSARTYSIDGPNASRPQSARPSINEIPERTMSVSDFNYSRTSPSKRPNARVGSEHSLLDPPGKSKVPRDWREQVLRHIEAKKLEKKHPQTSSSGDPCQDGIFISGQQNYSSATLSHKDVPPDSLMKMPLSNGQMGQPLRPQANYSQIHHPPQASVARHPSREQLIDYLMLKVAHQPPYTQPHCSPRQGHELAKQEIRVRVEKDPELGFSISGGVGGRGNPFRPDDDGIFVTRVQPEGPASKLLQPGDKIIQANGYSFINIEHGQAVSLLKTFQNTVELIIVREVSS
UniProt Q96SL8: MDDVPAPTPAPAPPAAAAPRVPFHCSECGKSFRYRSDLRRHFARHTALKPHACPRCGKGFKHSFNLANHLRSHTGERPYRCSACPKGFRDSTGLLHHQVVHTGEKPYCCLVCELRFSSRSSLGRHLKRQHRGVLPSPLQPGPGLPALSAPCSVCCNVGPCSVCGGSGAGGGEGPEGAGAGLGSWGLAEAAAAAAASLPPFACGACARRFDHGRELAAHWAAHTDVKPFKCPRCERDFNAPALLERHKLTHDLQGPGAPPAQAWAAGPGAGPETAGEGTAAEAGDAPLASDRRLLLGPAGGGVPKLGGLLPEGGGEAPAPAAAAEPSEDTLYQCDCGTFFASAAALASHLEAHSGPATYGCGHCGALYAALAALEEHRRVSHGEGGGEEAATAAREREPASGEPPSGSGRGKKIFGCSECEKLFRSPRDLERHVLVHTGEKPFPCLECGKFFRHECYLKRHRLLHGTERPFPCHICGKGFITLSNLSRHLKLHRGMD
UniProt Q96H12: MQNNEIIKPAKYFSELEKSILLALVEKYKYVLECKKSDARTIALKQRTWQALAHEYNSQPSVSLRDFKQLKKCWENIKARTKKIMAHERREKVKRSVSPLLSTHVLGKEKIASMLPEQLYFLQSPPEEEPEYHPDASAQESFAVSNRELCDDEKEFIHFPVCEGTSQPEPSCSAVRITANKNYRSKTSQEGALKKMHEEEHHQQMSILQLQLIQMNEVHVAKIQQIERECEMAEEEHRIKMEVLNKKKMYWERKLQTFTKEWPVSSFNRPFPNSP
UniProt Q96HE9: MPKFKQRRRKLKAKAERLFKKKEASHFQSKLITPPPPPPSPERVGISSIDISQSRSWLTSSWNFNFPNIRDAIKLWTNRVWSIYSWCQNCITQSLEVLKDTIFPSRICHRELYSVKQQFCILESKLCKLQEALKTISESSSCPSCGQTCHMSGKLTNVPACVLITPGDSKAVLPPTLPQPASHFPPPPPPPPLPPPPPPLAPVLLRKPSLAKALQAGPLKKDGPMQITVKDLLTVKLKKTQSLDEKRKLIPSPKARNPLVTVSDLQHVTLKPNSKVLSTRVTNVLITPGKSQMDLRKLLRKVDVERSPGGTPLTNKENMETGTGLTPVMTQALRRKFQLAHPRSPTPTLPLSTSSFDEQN
UniProt Q96H40: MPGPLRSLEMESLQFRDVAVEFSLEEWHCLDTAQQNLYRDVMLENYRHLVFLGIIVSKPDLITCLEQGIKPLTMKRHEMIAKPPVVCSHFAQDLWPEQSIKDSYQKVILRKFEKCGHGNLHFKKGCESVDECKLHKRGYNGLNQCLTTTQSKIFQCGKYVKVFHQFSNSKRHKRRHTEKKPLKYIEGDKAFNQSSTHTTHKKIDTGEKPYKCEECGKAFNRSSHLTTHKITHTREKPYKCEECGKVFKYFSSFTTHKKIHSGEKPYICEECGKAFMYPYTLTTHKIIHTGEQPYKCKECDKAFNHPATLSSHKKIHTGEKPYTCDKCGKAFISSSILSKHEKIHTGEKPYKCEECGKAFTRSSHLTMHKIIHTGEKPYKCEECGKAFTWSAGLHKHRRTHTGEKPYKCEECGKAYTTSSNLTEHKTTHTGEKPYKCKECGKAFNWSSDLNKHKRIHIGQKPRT
UniProt Q96IW7: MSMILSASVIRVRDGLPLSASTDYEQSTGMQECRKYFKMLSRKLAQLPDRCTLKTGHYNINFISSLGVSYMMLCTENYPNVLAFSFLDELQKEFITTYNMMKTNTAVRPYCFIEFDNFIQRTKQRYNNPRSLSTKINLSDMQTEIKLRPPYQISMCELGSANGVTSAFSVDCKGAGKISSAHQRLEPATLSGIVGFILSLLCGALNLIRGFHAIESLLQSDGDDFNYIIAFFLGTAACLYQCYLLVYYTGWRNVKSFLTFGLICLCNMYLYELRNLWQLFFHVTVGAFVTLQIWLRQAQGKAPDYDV

The list shows a part of the results. Most values lie at the level of the controls, where differences are scatter.

Compound in the assay: CN[C@@H]1C[C@H]2O[C@@](C)([C@@H]1OC)n1c3ccccc3c3c4c(c5c6ccccc6n2c5c31)C(=O)NC4 [staurosporine]
The assay can be described thus: log2 fold change of tryptic peptide abundance, ligand vs vehicle (limited proteolysis) (log2 ratio); higher = more trypsin-susceptible (destabilized). As to conditions: ligand concentration: 20 uM; sample: K562 cleared lysate; digestion: 4 min, 22 C (HT-PELSA RT4min, Orbitrap Astral).
Regarding “VPS39 (peptide sequence: QLQYPNPLPVLSGAELEK, peptide start residue: 394) (UniProt Q96JC1)”, the log2 fold change stood at 0.471.
Under “C9orf72 (peptide sequence: NAESGAIDVK, peptide start residue: 74) (UniProt Q96LT7)” stands -0.179.
Consider “UniProt Q96RT1 (peptide sequence: LKDEETNEDSGR, peptide start residue: 505)”, for which the log2 fold change was -0.489.
Under “FIZ1 (peptide sequence: DFNAPALLER, peptide start residue: 236) (UniProt Q96SL8)” stands 0.646; under “UniProt Q96H12 (peptide sequence: SILLALVEK, peptide start residue: 19)”, 0.252.
With “UniProt Q96HE9 (peptide sequence: VTNVLITPGK, peptide start residue: 281)”, the log2 fold change was -0.237.
Under “UniProt Q96H40 (peptide sequence: SSHLTTHK, peptide start residue: 273)” stands 0.146; under “SEC22A (peptide sequence: SMILSASVIR, peptide start residue: 2) (UniProt Q96IW7)”, -0.11.
